Source: patent US5298621A (Sigma-Tau Industrie Farmaceutiche Riunite S.p.A., priority 1990, dated 1994)

Assay: general procedure: solution-phase peptide synthesis
Conditions: conjugation step, adduct with 2 NaCl molecules (ST 873); adduct with 2 NaCl and 2 HCl molecules (ST 897)

Substance | conjugation yield [%]
N-5-(ipoxantin-9-yl) pentyloxycarbonyl L-arginyl L-lysyl L-alpha-aspartyl L-valyl L-tyrosine | 33
N-5-(ipoxantin-9-yl) pentyloxycarbonyl L-valyl L-alpha-aspartyl L-lysyl L-arginine | 35
